The supplement of paper PMC12578635
The other results are listed elsewhere or left out. Cut-off read from the data, not from the text of the source: active = 150% or more and inactive = the rest. Many values rest on one well or one pass, so single values are uncertain.

System: Staphylococcus aureus JE2-lux inside RAW 264.7 macrophages
Assay: intracellular bacterial bioluminescence relative to DMSO vehicle; higher = higher intracellular bacterial metabolic activity
Settings: 10 µM; treatment time 4 h; gentamicin 50 µg/ml

Intracellular bacterial bioluminescence, inactive:
COCCn1c(C)cc(O)c(C(c2ccncc2)N2CCC(C)CC2)c1=O (centres undefined) 109%, CC(Oc1ccccc1)C(=O)N1CCC2(CC1)CC(=O)c1ccccc1O2 (centres undefined) 107%, NC(=O)c1cc2c(ccc3ccccc32)o/c1=N\NC(=O)c1ccccc1 83.6%, Cc1cc(C)nc(SCc2cc(=O)c(OC(=O)c3ccc4c(c3)OCO4)co2)n1 100%, Cc1ccc(C(=O)NCCn2ccc(C)n2)c(N2CCN(CCO)CC2)n1 80.6%, COc1ccccc1/C=C/C1=NC(=C\c2coc3ccccc3c2=O)/C(=O)O1 80.4%, COc1ccccc1/N=c1\sc(C(C)=O)c(C)n1CCCN1CCOCC1 104%, CC1=C(C(=O)Nc2ccccc2C)C(c2ccc(C)o2)n2c(s/c(=C/c3ccc(O)cc3)c2=O)=N1 (centres undefined) 83.1%, COc1ccc(C2NCCc3cc(O)c(O)cc32)cc1OC (centres undefined) 105%, O=C(NCc1ccccc1)N1CCCC1c1nc(Cc2ccc(F)cc2)n[nH]1 (centres undefined) 102%, COc1cc(C2c3sc(=O)[nH]c3SC3C4CCC(C4)C23)ccc1O (centres undefined) 92.2%, O=C(Nc1ccc(F)cc1F)c1nnc(C2CCN(S(=O)(=O)c3c[nH]cn3)CC2)s1 67.6%, O=C(CCCc1nnc2c(=O)n(-c3ccc(Cl)cc3)ccn12)N1CCN(C2CCCCC2)CC1 116%, O=C(CSC1=N/C(=C/c2ccc3c(c2)OCO3)C(=O)N1c1ccccc1)c1ccccc1 111%, O=C(CCN1CCOCC1)N/N=C/c1ccc(OC(=O)c2cccnc2)cc1 95.6%, Cc1[nH]c2nc(CNc3cccc(Cl)c3C)nn2c(=O)c1C 123%, Cc1nn(-c2ccccc2)c2ncc(C(=O)NCCC(C)C)c(NCc3ccc(Cl)cc3)c12 70.2%, O=C(CCCCn1c(=O)[nH]c2ccsc2c1=O)NCC1CCCO1 (centres undefined) 114%, CCCC(CCC)C(=O)N1CCC(c2nnc(C(=O)Nc3ccccc3C)s2)CC1 72.9%, COc1cccc(NC(=O)c2nc(N3CCCC3)c3c(C)c(C)n(-c4ccccc4)c3n2)c1 87.4%, O=C(NCc1cccs1)c1cnc2cc3c(cc2c1O)OCCO3 94.4%, COc1ccc(NC(=O)C2CCCN2C(=O)NC2CCCCC2)c(OC)c1 (centres undefined) 112%, CCOC(=O)c1oc2ccccc2c1NC(=O)c1cccc([N+](=O)[O-])c1 110%, O=C(NC1CCCC1)c1cc2c(=O)n3ccccc3nc2s1 28.7%, Cc1ccc(CNC(=O)CCc2nc(N3CCCC3)c3c(C)noc3n2)cc1 79.7%, CC(NC(=O)COc1ncnc2onc(-c3cccc(F)c3)c12)c1ccccc1 (centres undefined) 75.2%, Cc1ccc(/C=C2/S/C(=N/c3ccc(O)cc3)NC2=O)o1 70.2%, COc1cccc(NCc2cc3c(C)nn(-c4ccc(F)cc4)c3[nH]c2=O)c1 127%, Nc1ncnc(SC2=NCCCN2)c1[N+](=O)[O-] 88.9%, COc1ccc(C2=C(C)C(N3CCC(C(=O)NCc4ccc5c(c4)OCO5)CC3)=NS2(=O)=O)cc1 110%, Cc1cccc2sc(NC(=O)CN3C(=O)c4ccccc4S3(=O)=O)nc12 7.81%, COCCn1/c(=N/C(=O)c2cc(=O)c3ccccc3o2)sc2ccccc21 115%, O=C(CCn1cnc2c(-c3ccccc3)noc2c1=O)NC1CCS(=O)(=O)C1 (centres undefined) 94.2%, Cc1cccc2c1NC(=O)C2(O)CC(=O)c1ccc(-c2ccc(Cl)cc2)o1 (centres undefined) 82.7%, Cc1cn2c3c(=O)n(C)c(=O)n(C)c3nc2n1CCCn1ccnc1 131%, CC(=O)Nc1c(C)cc(C)c(NS(=O)(=O)c2ccc3c(c2)NC(=O)CO3)c1C 104%, COc1ccc(OC)c(CCn2c(=S)[nH]c3c(oc4ccccc43)c2=O)c1 116%, CC(=O)c1ccc(S(=O)(=O)Nc2ccc(-n3c(C)nc4ccccc4c3=O)cc2)cc1 106%, O=C(NCc1ccc2c(c1)OCO2)C1CCN(c2nccn3nc(-c4ccc(F)cc4)cc23)CC1 91.2%, CN1CCCC(NC(=O)COc2ncnc3ccccc23)C1 (centres undefined) 101%, CCCc1cc(=O)[nH]c(Nc2cc(Cl)ccc2O)n1 127%, Cc1ccc(-n2c(C)cs/c2=N\C(=S)Nc2ccccc2)cc1 71.1%, O=C(CSc1nc2ccc(N3CCCCC3)cc2c(=O)n1Cc1ccccc1)NCc1ccco1 89.3%, Cc1nn2c(N(C)C)cc(C(C)(C)C)nc2c1-c1ccc(F)cc1 95.9%
